Laboratory results reported in the supplement of paper PMC4862054.
Most entries show no effect beyond the scatter of the controls.

Key:
Assay in all cases: normalised response (% of control), CellTox Green; higher = less cell death (100 = DMSO, 0 = benzethonium chloride kill control)
Settings in all cases: incubation time: 72 h
MCF-10A = tested on: MCF-10A
Experimental: (§1)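 DSRT, 72 h incubation, CellTox Green / CellTiter-Glo readout. Signal is normalised to DMSO and benzethonium chloride controls. Value is the normalised response at the lowest tested concentration.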

HCC1143 = tested on: HCC1143
Experimental: as §1

MFM-223 = tested on: MFM-223
Experimental: as §1

MDA-MB-436 = tested on: MDA-MB-436
Experimental: as §1

CAL-120 = tested on: CAL-120
Experimental: as §1

MDA-MB-231 = tested on: MDA-MB-231
Experimental: as §1

CAL-51 = tested on: CAL-51
Experimental: as §1

Hs578T = tested on: Hs578T
Experimental: as §1

BT-549 = tested on: BT-549
Experimental: as §1

DU-4475 = tested on: DU-4475
Experimental: as §1

BT-474 = tested on: BT-474
Experimental: as §1

HCC1599 = tested on: HCC1599
Experimental: as §1

HCC1937 = tested on: HCC1937
Experimental: as §1

CAL-85-1 = tested on: CAL-85-1
Experimental: as §1

HDQ-P1 = tested on: HDQ-P1
Experimental: as §1

MDA-MB-468 = tested on: MDA-MB-468
Experimental: as §1

MDA-MB-453 = tested on: MDA-MB-453
Experimental: as §1

CAL-148 = tested on: CAL-148
Experimental: as §1

| SMILES | normalised response (MCF-10A) [%] | normalised response (HCC1143) [%] | normalised response (MFM-223) [%] | normalised response (MDA-MB-436) [%] | normalised response (CAL-120) [%] | normalised response (MDA-MB-231) [%] | normalised response (CAL-51) [%] | normalised response (Hs578T) [%] | normalised response (BT-549) [%] | normalised response (DU-4475) [%] | normalised response (BT-474) [%] | normalised response (HCC1599) [%] | normalised response (HCC1937) [%] | normalised response (CAL-85-1) [%] | normalised response (HDQ-P1) [%] | normalised response (MDA-MB-468) [%] | normalised response (MDA-MB-453) [%] | normalised response (CAL-148) [%] |
| --- | --- | --- | --- | --- | --- | --- | --- | --- | --- | --- | --- | --- | --- | --- | --- | --- | --- | --- |
| Cn1c(=O)c(F)c(Nc2ccc(I)cc2F)c2c(=O)n(C[C@@H](O)CO)cnc21 [TAK-733] (0.1 nM) | 95.4 | 110 | 106 | 88.4 | 100 | 121 | 115 | 95.9 | 101 | 110 | 97.1 | 117 | 89.9 | 97.1 | 101 | 76.8 | 73.7 | 103 |
| Nc1nc2[nH]cnc2c(=S)[nH]1 [Thioguanine] (1 nM) | 104 | 108 | 102 | 73.2 | 101 | 114 | 62 | 88.1 | 97.1 | 105 | 100 | 109 | 90 | 101 | 96 | 89.8 | 97 | 94.1 |
| NC(=O)NO [Hydroxyurea] (10 nM) | 91.1 | 116 | 90.4 | 114 | 103 | – | 103 | 77.9 | 94.2 | 105 | 100 | 109 | 100 | 101 | 102 | 63.4 | 104 | 107 |
| Cc1cc(Nc2cc(CN3CCOCC3)c3nc(C)c(Cc4ccc(Cl)cc4F)n3n2)n[nH]1 [Gandotinib] (1 nM) | 96.9 | 83.4 | 94.2 | 98.4 | 101 | 96.1 | 117 | 77.2 | 98.7 | 101 | 104 | 96.9 | 95.3 | 105 | 84.2 | 94.2 | 112 | 69.9 |
| CC1(COc2ccc3c(c2)ncn3-c2ccc3cccc(N4CCC(N)CC4)c3n2)COC1 [Crenolanib] (1 nM) | 96.4 | 121 | 101 | – | 105 | 107 | 117 | 109 | 103 | 104 | 98.9 | 108 | 110 | 87.6 | 96.9 | 75.7 | 103 | 99.3 |
| CCc1c2c(nc3ccc(OC(=O)N4CCC(N5CCCCC5)CC4)cc13)-c1cc3c(c(=O)n1C2)COC(=O)[C@]3(O)CC [Irinotecan] (1 nM) | 88.5 | 71.5 | 92.9 | 63.3 | 93 | 106 | 110 | 106 | 101 | 98.7 | 104 | 89.3 | 90 | 103 | 66.7 | 107 | 101 | 67.5 |
| Cn1c(Nc2ccc(C(F)(F)F)cc2)nc2cc(Oc3ccnc(-c4ncc(C(F)(F)F)[nH]4)c3)ccc21 [RAF265] (0.1 nM) | 94 | 95.5 | 104 | 87.4 | 101 | 113 | 113 | 89.2 | 95.7 | 103 | 105 | 98.2 | 92.4 | 102 | 95.7 | 117 | 105 | – |
| CC/C(=C(\c1ccccc1)c1ccc(OCCN(C)C)cc1)c1ccccc1 [Tamoxifen] (1 nM) | 114 | 112 | 96.4 | 98.9 | 104 | 116 | 119 | 59.8 | 92.7 | 107 | 99.8 | 111 | 120 | 92.8 | 103 | 80.8 | 106 | 73.9 |
| CC(C)c1c(C(=O)Nc2ccccc2)c(-c2ccccc2)c(-c2ccc(F)cc2)n1CC[C@@H](O)C[C@@H](O)CC(=O)O [Atorvastatin] (1 nM) | 102 | 120 | 100 | 81.5 | 101 | 96.8 | 106 | 105 | 95.2 | 106 | 100 | 105 | 103 | 95.9 | 95.9 | 85.9 | 104 | 103 |
| CNC(=O)c1ccccc1Sc1ccc2c(/C=C/c3ccccn3)n[nH]c2c1 [Axitinib] (1 nM) | 107 | 125 | 103 | 104 | 101 | 99.1 | 101 | 110 | 113 | 104 | 103 | 106 | 113 | 112 | 96.1 | 100 | 116 | 108 |
| C[C@]12CC[C@@H]3c4ccc(O)cc4C[C@@H](CCCCCCCCC[S+]([O-])CCCC(F)(F)C(F)(F)F)[C@H]3[C@@H]1CC[C@@H]2O (some centres undefined) [Fulvestrant] (0.1 nM) | 104 | 118 | 97.1 | 94.8 | 101 | 107 | 122 | 90.7 | 80.3 | 103 | 99.7 | 109 | 110 | 105 | 84.5 | 87.3 | 104 | 104 |
| CC(=O)OC[C@H]1O[C@@H]([S-])[C@H](OC(C)=O)[C@@H](OC(C)=O)[C@@H]1OC(C)=O.CCP(CC)CC.[Au+] [Auranofin] (0.25 nM) | 99.8 | 96 | 95.5 | 111 | 108 | 124 | 111 | 82.7 | 110 | 117 | 104 | 127 | 109 | 103 | 106 | 80.7 | 107 | 51.5 |
| O=[N+]([O-])c1ccc2c(c1)S(=O)(=O)C=C2 [Stattic] (5 nM) | 100 | 75.5 | 97.5 | 93.1 | 103 | 101 | 96.3 | 110 | 99.6 | 107 | 99.6 | 108 | 75.5 | 106 | 93.6 | 75.3 | 103 | 99.7 |
| C=CC(=O)Nc1cc2c(Nc3ccc(F)c(Cl)c3)ncnc2cc1OCCCN1CCOCC1 [Canertinib] (1 nM) | 93.3 | 98.7 | 99.5 | 93.5 | 96.2 | 101 | 125 | 74.5 | 87.9 | 102 | 106 | 106 | 88.1 | 105 | 96.1 | 106 | 71.5 | 108 |
| Nc1ncn([C@@H]2O[C@H](CO)[C@@H](O)[C@H]2O)c(=O)n1 [Azacitidine] (1 nM) | 98.6 | 120 | 105 | 95.4 | 96.7 | 75.9 | 112 | 103 | 103 | 101 | 98.7 | 98.4 | 90.3 | 103 | 81.5 | 141 | 105 | 77.9 |
| COc1cc(Nc2ncc3c(n2)-c2ccc(Cl)cc2C(c2c(F)cccc2OC)=NC3)ccc1C(=O)O [Alisertib] (1 nM) | 104 | 94.4 | 93.7 | 64.3 | 97.7 | 102 | 120 | 101 | 87.7 | 95.1 | 96.9 | 96.4 | 59.9 | 94.2 | 76.6 | 91.8 | 98 | 103 |
| O=C(Nc1ccncc1)C(=O)c1cn(Cc2ccc(Cl)cc2)c2ccccc12 [Indibulin] (1 nM) | 90.6 | 123 | 105 | 89.5 | 98.5 | 105 | 109 | 110 | 103 | 103 | 106 | 106 | 87.9 | 106 | 90.6 | 96.4 | 114 | 110 |
| COc1ccccc1S(=O)(=O)Nc1ccc2c(c1)CN(C)C(=O)N2 [PFI-1] (1 nM) | 100 | 128 | 101 | 99.9 | 107 | 128 | 85.5 | 91.2 | 96.3 | 117 | 98 | 128 | 104 | 107 | 113 | 51.5 | 108 | 106 |
| O=NN(CCCl)C(=O)NCCCl [Carmustine] (1 nM) | 79.6 | 115 | 96.5 | 73.1 | 97.5 | 100 | 64.6 | 80.9 | 79.6 | 98.6 | 98.5 | 99.2 | 101 | 97.8 | 94.1 | 78.9 | 101 | 81.6 |

Complete entries, looked up by structure. Order of values: normalised response (MCF-10A) [%]	normalised response (HCC1143) [%]	normalised response (MFM-223) [%]	normalised response (MDA-MB-436) [%]	normalised response (CAL-120) [%]	normalised response (MDA-MB-231) [%]	normalised response (CAL-51) [%]	normalised response (Hs578T) [%]	normalised response (BT-549) [%]	normalised response (DU-4475) [%]	normalised response (BT-474) [%]	normalised response (HCC1599) [%]	normalised response (HCC1937) [%]	normalised response (CAL-85-1) [%]	normalised response (HDQ-P1) [%]	normalised response (MDA-MB-468) [%]	normalised response (MDA-MB-453) [%]	normalised response (CAL-148) [%]
`O=C(Nc1ccncc1)C(=O)c1cn(Cc2ccc(Cl)cc2)c2ccccc12` [Indibulin] (1 nM) is entered as 90.6	123	105	89.5	98.5	105	109	110	103	103	106	106	87.9	106	90.6	96.4	114	110
`Cn1c(Nc2ccc(C(F)(F)F)cc2)nc2cc(Oc3ccnc(-c4ncc(C(F)(F)F)[nH]4)c3)ccc21` [RAF265] (0.1 nM) is entered as 94	95.5	104	87.4	101	113	113	89.2	95.7	103	105	98.2	92.4	102	95.7	117	105	–
